Reference: PubChem BioAssay AID662 (National Center for Advancing Translational Sciences (NCATS), 2007)
Values joined by “and” are separate entries in the source; they are usually repeats but may differ in a detail not shown here. Equal values may be shown once. The list shows a part of the results. Further columns of the screen follow, without active or inactive calls. Compounds called inactive in the main read-out are mostly missing here. Potencies come from curve fits of mixed quality, noted in brackets.

Assay: Cell signaling CRE-BLA (Fsk stim)
Settings: CHO CRE-bla reporter (cAMP response element driving beta-lactamase), forskolin EC10, beta-lactamase ratio; measured here: 460 nm blue channel
In short: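 Forskolin analogue NKH 477 at EC10 stimulated CRE-driven beta-lactamase in CHO cells alongside compound dilution series. Beta-lactamase was measured with CCF4, excitation 405 nm, emission ratio 460/530 nm.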

SMILES | AC50
COc1ccc(CCCc2nnc(SCC(=O)Nc3ncc(C)s3)o2)cc1 | 10 µM [rising, partial curve]
O=C(c1cccc(S(=O)(=O)N2CCCCC2)c1)N1CCCCC1 | 0.00398 µM [falling, full curve, poor fit]
O=c1c(-c2cccs2)nc2cnc(N3CCOCC3)nc2n1Cc1ccc(F)cc1 | 0.631 µM [rising, full curve]
O=C(COC(=O)C1=COCCO1)Nc1ccccc1Oc1ccccc1 | 0.251 µM [falling, partial curve]
Cc1nc(NC(=O)CSc2nc3cccnc3n2Cc2ccccc2)sc1C | 2.51 µM [rising, full curve]
COc1ccc(S(=O)(=O)NC(CC(=O)N2CCc3ccccc32)c2ccco2)cc1 (stereo not drawn) | 5.01 µM [falling, single point]
O=C(Cn1cnc2sc(-c3ccccc3)cc2c1=O)N1CCOCC1 | 12.6 µM [rising, single point]
Cc1cnc(CNc2ccnc(-c3ccccc3Cl)n2)cn1 | 7.94 µM [rising, partial curve]
COc1ccc(-c2cc(C(=O)NCC(C)C)no2)cc1 | 0.00398 µM [falling, full curve, poor fit]
CCOc1cc(C(=O)CSc2nnc(CNc3ccc(Cl)cc3)o2)ccc1NC(=O)CC | 25.1 µM [falling, single point]
COCCSc1nc2c(c(=O)[nH]c(=O)n2C)n1Cc1cccc(C)c1 | 15.8 µM [rising, partial curve]
N=C(N)SCCc1ccccn1 | 5.01 µM [rising, single point]
c1cn(-c2ccnc(-c3ccc4c(c3)OCO4)n2)cn1 | 10 µM [rising, partial curve]
COc1ccc(NC(=O)CSc2nc3c(c(=O)n2-c2ccccc2)SCC3)c(OC)c1 | 2.51 µM [rising, full curve]
Cc1cccc(-n2nnc(C(=O)NCc3ccc4c(c3)OCO4)c2N)c1 | 3.16 µM [rising, single point]
CC1=C(C(=O)Nc2cccc(C)n2)C(c2ccc3c(c2)OCO3)C2=C(CC(c3ccco3)CC2=O)N1 (stereo not drawn) | 10 µM [rising, partial curve]
CC1CCCCC1NS(=O)(=O)c1ccc(S(=O)(=O)N2CCCC2)cc1 (stereo not drawn) | 12.6 µM [rising, partial curve]
COC(=O)c1[nH]c(C)c(/C(O)=C2\C(=O)C(=O)N(CCN(C)C)C2c2ccc(OC)cc2)c1C (stereo not drawn) | 25.1 µM [rising, single point]
CCCCN(CC)CCNC(=O)Cn1cnc2sc(C)c(S(=O)(=O)N3CCOCC3)c2c1=O | 0.0501 µM [falling, full curve]
COC(=O)c1c(NC(=O)c2ccc(C)o2)sc2c1CCCCC2 | 7.94 µM [rising, partial curve]
Cc1cc(C)n2nc(SCc3ncc(-c4ccccc4)o3)nc2n1 | 3.98 µM [rising, partial curve]
CN(C)c1ncc2nc(-c3ccccc3)c(=O)n(Cc3ccc(F)cc3)c2n1 | 1.58 µM [rising, partial curve]

3 consecutive records already listed:
SMILES | AC50
O=C(Cn1cnc2sc(-c3ccccc3)cc2c1=O)N1CCOCC1 | 12.6 µM [rising, single point]
Cc1cnc(CNc2ccnc(-c3ccccc3Cl)n2)cn1 | 7.94 µM [rising, partial curve]
COc1ccc(-c2cc(C(=O)NCC(C)C)no2)cc1 | 0.00398 µM [falling, full curve, poor fit]

Following part.

SMILES | AC50
N#Cc1nc(COc2ccccc2F)oc1NCCc1ccccc1 | 5.01 µM [falling, partial curve, poor fit]
Cc1ccc(C(=O)CSc2nnc(-c3cccnc3)n2N)cc1 | 10 µM [rising, single point]
Cn1ccnc1SC(=O)N1c2ccccc2Sc2ccccc21 | 1 µM [falling, partial curve]
CCCCOc1ccc(C(C)(O)CCN2CCOCC2)cc1 (stereo not drawn) | 3.98 µM [falling, single point]
CC(=O)NCCNc1ncnc2ccc(-c3ccccc3C#N)cc12 | 6.31 µM [rising, partial curve]
CN1C2CCC1CC(OC(=O)c1c[nH]c3ccccc13)C2 (stereo not drawn) | 0.00398 µM [falling, full curve, poor fit]
COc1ccccc1-c1ccc2ncnc(N3CCOCC3)c2c1 | 0.501 µM [rising, single point]
COc1cccc(Nc2ncc3nc(-c4cc(F)cc(F)c4)c(=O)n(C4CC4)c3n2)c1 | 1.26 µM [rising, partial curve]
CCCc1cc(C(N)=O)c(NC(=O)c2ccoc2C)s1 | 10 µM [rising, partial curve]
COc1ccc(OC)c(C(C(=O)NCc2ccco2)N(C(=O)Cn2nnc3ccccc32)C(C)C)c1 (stereo not drawn) | 25.1 µM [falling, single point]
O=C(CCn1nnc2ccccc2c1=O)N[C@@H](Cc1ccccc1)C(=O)O | 1 µM [rising, partial curve]
CCc1c(C)nc2cc(-c3cc(OC)cc(OC)c3)nn2c1N1CCCC1 | 5.01 µM [rising, partial curve]
CCN1C(=O)/C(=C2/C=CC=CN2C)SC1=S | 0.316 µM [rising, partial curve]
COc1ccc(C)cc1NC(=O)c1cnc2sccn2c1=O | 10 µM [rising, partial curve]
COc1ccc(-c2nc3cnc(OC)nc3n(C[C@H]3CCCO3)c2=O)cc1 | 12.6 µM [rising, partial curve]
CCCCc1ccc(Nc2ncnc3nc[nH]c23)cc1 | 10 µM [rising, partial curve]
CC(=O)N1CCc2cc(S(=O)(=O)NCCC(=O)Nc3ccc4c(c3)OCCO4)ccc21 | 0.0251 µM [falling, full curve, poor fit]
O=C(OCCN1C(=O)c2ccccc2C1=O)c1cccc(OC(F)F)c1 | 3.98 µM [falling, partial curve]
Cn1c(=O)oc2cc(S(=O)(=O)Nc3ccc4c(c3)OCCO4)ccc21 | 5.01 µM [falling, single point]
CC(C)Nc1oc(-c2cccc3ccccc23)nc1C#N | 12.6 µM [rising, partial curve]
COc1c2occc2cc2ccc(=O)oc12 | 10 µM [rising, partial curve] and 15.8 µM [rising, partial curve] and 10 µM [rising, single point]
